{"source": "the supplement of paper PMC12889115", "tested_on": "Salmonella enterica serovar Typhimurium SL1344", "experiment": "bacterial growth OD600 after 18 h with compound and polymyxin B; higher = more bacterial growth (less inhibition)", "conditions": "50 µM, Mueller-Hinton broth", "note": "Some of the results follow. These are raw signals, not scaled to a control.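 In the initial screen, polymyxin B was used at a concentration that permeabilizes Salmonella's outer membrane but not its inner membrane. Maximum growth was set by DMSO wells with or without polymyxin B. Since plates varied, data were ranked per plate, and compounds giving the lowest OD600 advanced as hits.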"}
{"smiles": "CN(C)c1ncc2c(n1)CCCC2NCc1nc(-c2ccccc2)cs1", "note": "(stereo unspecified)", "values": [{"measurement": "bacterial growth OD600", "setting": "polymyxin B 0.75 µg/mL", "value": 0.725}]}
{"smiles": "CCOC(=O)C1(Cc2ccc(F)cc2)CCCN(C(=O)c2cc(F)ccc2F)C1", "note": "(stereo unspecified)", "values": [{"measurement": "bacterial growth OD600", "setting": "polymyxin B 1 µg/mL", "value": 0.739}]}
{"smiles": "CCn1cc(CN2CCc3[nH]nc(-c4ccccc4F)c3C2)c(C)n1", "values": [{"measurement": "bacterial growth OD600", "setting": "polymyxin B 0.75 µg/mL", "value": 0.826}]}
{"smiles": "CN(CC1CCN(CCc2cccc(F)c2)CC1)C(=O)CCN1CCCO1", "values": [{"measurement": "bacterial growth OD600", "setting": "polymyxin B 1 µg/mL", "value": 0.966}]}
{"smiles": "CCCCNC(=O)c1cn(C2CCCCC2)cc(C(=O)NCCc2ccncc2)c1=O", "values": [{"measurement": "bacterial growth OD600", "setting": "polymyxin B 0.75 µg/mL", "value": 0.831}]}
{"smiles": "Fc1ccc(Cc2noc(-c3ccc(NCC4COCCO4)nc3)n2)cc1", "note": "(stereo unspecified)", "values": [{"measurement": "bacterial growth OD600", "setting": "polymyxin B 0.75 µg/mL", "value": 0.005}]}
{"smiles": "C=CCO[C@H]1[C@H](NC(=O)COC)c2ccccc2C12CCN(Cc1cccc(OCCO)c1)CC2", "values": [{"measurement": "bacterial growth OD600", "setting": "polymyxin B 0.75 µg/mL", "value": 1.07}]}
{"smiles": "COc1ccc(CN2CCN(Cc3cc(C(C)C)[nH]n3)CC2CCO)cc1C", "note": "(stereo unspecified)", "values": [{"measurement": "bacterial growth OD600", "setting": "polymyxin B 1 µg/mL", "value": 0.983}]}
{"smiles": "Cc1cccc(-c2cccc(NC(=O)C3CCCN3Cc3nccn3C)c2)c1", "note": "(stereo unspecified)", "values": [{"measurement": "bacterial growth OD600", "setting": "polymyxin B 0.75 µg/mL", "value": 0.438}]}
{"smiles": "CC(C)c1nc(CNC(=O)c2ccc(NC(C)C3CC3)nc2)no1", "note": "(stereo unspecified)", "values": [{"measurement": "bacterial growth OD600", "setting": "polymyxin B 1 µg/mL", "value": 1.18}]}
{"smiles": "CCc1csc(CNC(=O)c2ccc(N3CCCC(O)C3)nc2)n1", "note": "(stereo unspecified)", "values": [{"measurement": "bacterial growth OD600", "setting": "polymyxin B 1 µg/mL", "value": 0.852}]}
{"smiles": "CC(C)c1ccc(CN2CCCC3(CCN(C(=O)c4cccnc4)C3)C2=O)cc1", "note": "(stereo unspecified)", "values": [{"measurement": "bacterial growth OD600", "setting": "polymyxin B 1 µg/mL", "value": 1.2}]}
{"smiles": "CC(C)c1ccc(CN2CCCC3(CCN(C(=O)c4ccccn4)C3)C2=O)cc1", "note": "(stereo unspecified)", "values": [{"measurement": "bacterial growth OD600", "setting": "polymyxin B 1 µg/mL", "value": 0.968}]}
{"smiles": "OCc1ccc(CN2CCCC(Nc3ccc(F)c(F)c3)C2)o1", "note": "(stereo unspecified)", "values": [{"measurement": "bacterial growth OD600", "setting": "polymyxin B 1 µg/mL", "value": 0.805}]}
{"smiles": "COC(=O)[C@@H]1CCCN1C(=O)c1c(OC)cc(=O)n2c1CCN(C(=O)C#Cc1ccccc1)CC2", "values": [{"measurement": "bacterial growth OD600", "setting": "polymyxin B 0.75 µg/mL", "value": 0.881}]}
{"smiles": "Cn1c(C(=O)N2CCC(n3nccc3NC(=O)C3CCOC3)CC2)cc2ccccc21", "note": "(stereo unspecified)", "values": [{"measurement": "bacterial growth OD600", "setting": "polymyxin B 0.75 µg/mL", "value": 0.81}]}
{"smiles": "COCCCN1C(=O)CC(CC(=O)N2CCN(C3CCCC3)CC2)(c2ccccc2Cl)C1=O", "note": "(stereo unspecified)", "values": [{"measurement": "bacterial growth OD600", "setting": "polymyxin B 0.75 µg/mL", "value": 0.862}]}
{"smiles": "O=C1O[C@@H]2CN(c3ncccc3Cl)C[C@@H]2N1C1CCCC1", "values": [{"measurement": "bacterial growth OD600", "setting": "polymyxin B 0.75 µg/mL", "value": 0.705}]}
{"smiles": "CCC(C)CN1CCCC(c2nc(-c3ccncc3)ncc2-c2ccccc2)C1", "note": "(stereo unspecified)", "values": [{"measurement": "bacterial growth OD600", "setting": "polymyxin B 0.75 µg/mL", "value": 0.686}]}
{"smiles": "CSc1nccc(-c2cc(Cl)c3c(c2)CC(CNC(=O)c2cc(C(C)C)on2)O3)n1", "note": "(stereo unspecified)", "values": [{"measurement": "bacterial growth OD600", "setting": "polymyxin B 0.75 µg/mL", "value": 0.529}]}
{"smiles": "CC(C)C(=O)NC1CC(=O)N(CCc2cccc(Cl)c2)C1", "note": "(stereo unspecified)", "values": [{"measurement": "bacterial growth OD600", "setting": "polymyxin B 1 µg/mL", "value": 0.936}]}
{"smiles": "COc1ccc(CCNC(=O)C2CCC(=O)N(C3CCCC3)C2)cc1", "note": "(stereo unspecified)", "values": [{"measurement": "bacterial growth OD600", "setting": "polymyxin B 1 µg/mL", "value": 0.934}]}
{"smiles": "CC(=O)Nc1ccc(CN2CCCC(N3CCN(Cc4ccc5c(c4)OCO5)CC3)C2)cc1", "note": "(stereo unspecified)", "values": [{"measurement": "bacterial growth OD600", "setting": "polymyxin B 1 µg/mL", "value": 0.925}]}
{"smiles": "Cn1cc(C(=O)N2CCC(n3nccc3NC(=O)C3CCOC3)CC2)c2ccccc21", "note": "(stereo unspecified)", "values": [{"measurement": "bacterial growth OD600", "setting": "polymyxin B 1 µg/mL", "value": 0.905}]}
{"smiles": "CN1CCC(CN(CCc2ccccc2)C(=O)c2ccc3c(c2)OCCO3)CC1", "values": [{"measurement": "bacterial growth OD600", "setting": "polymyxin B 1 µg/mL", "value": 1.19}]}
{"smiles": "COc1ccc(C(=O)C2CCCN(Cc3ccc(SC)cc3)C2)cc1OC", "note": "(stereo unspecified)", "values": [{"measurement": "bacterial growth OD600", "setting": "polymyxin B 1 µg/mL", "value": 0.854}]}
{"smiles": "Cc1nc(-c2ccncc2)ncc1C(C)NCc1ccccn1", "note": "(stereo unspecified)", "values": [{"measurement": "bacterial growth OD600", "setting": "polymyxin B 0.75 µg/mL", "value": 0.776}]}
{"smiles": "COc1cccc(-c2cc(CC3(O)CCN(CCCSC)CC3)on2)c1", "values": [{"measurement": "bacterial growth OD600", "setting": "polymyxin B 1 µg/mL", "value": 0.836}]}
{"smiles": "COCCNC(=O)c1cccc(OC2CCN(C3C4CC5CC(C4)CC3C5)CC2)c1", "note": "(stereo unspecified)", "values": [{"measurement": "bacterial growth OD600", "setting": "polymyxin B 1 µg/mL", "value": 1.03}]}
{"smiles": "CN(C(=O)c1cc(Cn2ccc3ccccc32)[nH]n1)C1CCOCC1", "values": [{"measurement": "bacterial growth OD600", "setting": "polymyxin B 0.75 µg/mL", "value": 0.838}]}
{"smiles": "CCOC(=O)C1(Cc2ccc(Cl)cc2)CCN(Cc2ccon2)CC1", "values": [{"measurement": "bacterial growth OD600", "setting": "polymyxin B 1 µg/mL", "value": 0.78}]}
